This note sets out measurements from PubChem BioAssay AID2685 (National Center for Advancing Translational Sciences (NCATS), 2010).

The experiment can be described thus: qHTS Assay for Lipid Storage Modulators in Drosophila S3 Cells.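 As to cell number change: cells counted by Cell Tracker Red CMTPX staining in the red channel.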 Conditions: BODIPY lipid droplet fluorescence, 18-24 h; for cell number change: measured here: cell count max response, cells fed with added oleic acid. In outline: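 Drosophila S3 cells loaded with oleic acid (400 uM, as added) and compounds at several concentrations; lipid droplets imaged by 488-nm laser-scanning cytometry, 500–530 nm intensity and object ratio to cell channel. Percent activity normalized to 20 uM Triacsin C.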
A general note: Quantitative high-throughput screening tests each substance at several concentrations.

[1] abbreviates: measured here: cell number channel AC50, cells fed with added oleic acid.
Setting [2] is: measured here: lipid fluorescence (Fed channel) AC50, cells fed with added oleic acid.

Some of the results follow. These are further read-outs of the screen, such as a control signal, another cell line or another target. No call is given for them. The list favours compounds with an active or inconclusive main result. The note in brackets gives the kind of curve behind each potency; many fits are weak.

The AC50 is the concentration at which the activity in the assay is half-maximal.

On to `COc1cc(CN(C)CCc2ccccc2)ccc1OCc1ccccc1`, for which the cell number change is -19%. In addition, under setting [1], the AC50 was 0.731 µM [rising, single point]. For the same molecule, the AC50 under setting [2] was 29.1 µM [falling, partial curve, poor fit].
With `O=c1ccc(/C=C/c2ccccc2)nn1Cc1ccccc1`, the cell number change is -33.9%. Besides, the concentration at half-maximal activity (AC50) under setting [1] was 25.9 µM [falling, single point]. Under setting [2], the concentration at half-maximal activity (AC50) is 29.1 µM [falling, single point].
Regarding `O=C(Nc1ccnn1C1CCN(Cc2cccnc2)CC1)c1ccccc1Cl`, the cell number change was determined as 18.2%. The concentration at half-maximal activity (AC50) under setting [1] is 0.058 µM [rising, full curve].
For `COc1ccccc1OCC(=O)Nc1ccc(S(=O)(=O)N2CCCC2)cc1`, the cell number change is 14.5%.
Take `Cc1cc(NC(=O)C(C)SCC(=O)Nc2ccccc2OC(F)F)no1` (stereo unspecified): the cell number change is -14.9%.
`O=C1C(=O)N(Cc2cccnc2)C(c2cccc(Br)c2)/C1=C(/O)c1ccc2c(c1)OCO2` (stereo unspecified): the cell number change is 2.31%. Besides, the AC50 under setting [2] is 29.1 µM [rising, single point].
`Cc1cc(C)c2sc(N(CCCN(C)C)C(=O)c3ccc(S(=O)(=O)N(C)Cc4ccccc4)cc3)nc2c1`: the cell number change is -84.8%. In addition, the concentration at half-maximal activity (AC50) under setting [1] is 18.4 µM [falling, partial curve].
As for `O=C(NCc1cccnc1)C1CCN(S(=O)(=O)c2cccs2)CC1`, the cell number change is 18.6%. The half-maximal activity concentration (AC50) under setting [2] was 3.26 µM [rising, partial curve].
In the case of `O/C(=C\Sc1nnc(Cc2ccccc2)o1)c1ccc(Br)cc1`, the cell number change worked out at 4.05%.
Regarding `CCOC(=O)c1cc(-c2ccccc2)sc1NC(=O)COC(=O)c1ccc(Cl)c(S(N)(=O)=O)c1`, the cell number change is -64.6%. In addition, the AC50 under setting [1] is 18.4 µM [falling, single point].
In the case of `CCOc1nc(-c2ccccc2O)nc2ccccc12`, the cell number change turned out to be 119%. In addition, the AC50 under setting [1] is 1.3 µM [rising, full curve]. For the same molecule, the AC50 under setting [2] was 0.92 µM [rising, full curve].
Regarding `COC(=O)Cc1ccc(NC(=O)C(c2ccccc2)c2ccccc2)cc1`, the cell number change turned out to be 12.9%. The AC50 under setting [2] was 10.3 µM [rising, partial curve, poor fit].
In the case of `CCOCCCNC(=O)C(NC(=O)Cc1cccs1)c1ccc(C)cc1` (stereo unspecified), the AC50 under setting [1] was 0.651 µM [falling, single point] and the AC50 under setting [2] was 0.651 µM [falling, single point].
Consider `CC1(c2ccccc2)NC(=O)N(Cc2ccc([N+](=O)[O-])cc2)C1=O` (stereo unspecified), for which the cell number change stood at 15.9%. Further, under setting [2], the AC50 is 1.64 µM [rising, full curve, poor fit].
In the case of `Cc1cnc(NC(=O)Cc2ccc(C)c(C)c2)s1`, the cell number change was -23.7%. The AC50 under setting [1] was 0.0731 µM [falling, full curve, poor fit]. The AC50 under setting [2] was 5.62 µM [rising, single point].
On to `CCCOc1ccc(C(=O)NCCCn2ccnc2)cc1`, for which the cell number change is 9.76%.
Take `Cc1cc(C)c2nc(NNC(=O)c3ccc(S(=O)(=O)N4CC(C)CC(C)C4)cc3)sc2c1` (stereo unspecified): the cell number change was -12.8%. The concentration at half-maximal activity (AC50) under setting [2] is 20.6 µM [falling, single point].
On to `CC(=O)OC(CC(=O)O)C[N+](C)(C)C` (stereo unspecified), for which the cell number change came to 36.4%. Moreover, the AC50 under setting [2] was 6.51 µM [rising, single point].
As for `CC(C)(C)n1nnnc1C(c1ccc2ncccc2c1)N1CCSCC1` (stereo unspecified), the cell number change was determined as 13%. Under setting [2], the AC50 was 0.326 µM [rising, full curve, poor fit].
Consider `CC(C)c1ccc(-c2nc(N3CCCC3)nc3n[nH]c(N)c23)cc1`, for which, under setting [2], the half-maximal activity concentration (AC50) is 6.51 µM [rising, single point].
For the molecule `CN(Cc1cccs1)c1ncnc2sccc12`, the cell number change is -89.5%. The half-maximal activity concentration (AC50) under setting [1] was 29.1 µM [falling, single point]. Moreover, the half-maximal activity concentration (AC50) under setting [2] is 29.1 µM [falling, single point].
`O=C(CSc1nnc(CNC(=O)c2c(F)cccc2Cl)o1)NC1CCCCC1`: the cell number change is -9.35%. For the same molecule, the AC50 under setting [1] is 6.51 µM [falling, single point]. Under setting [2], the AC50 is 1.46 µM [rising, full curve, poor fit].
With `O=C(CCn1ccnc1)Nc1ccc2ccccc2c1`, the cell number change stood at 35.6%. In addition, the AC50 under setting [1] is 18.4 µM [rising, single point]. The concentration at half-maximal activity (AC50) under setting [2] was 4.11 µM [falling, partial curve].
Regarding `COCCNc1nc2nonc2nc1N1C[C@H]2CC[C@H]1C2`, the cell number change was found to be 21%. Moreover, the concentration at half-maximal activity (AC50) under setting [2] was 0.517 µM [rising, single point].
Turning to `Cc1ccnc(NC(=O)c2ccc(NS(=O)(=O)/C=C/c3ccccc3)cc2)c1`, the cell number change came to 12.6%. Moreover, the AC50 under setting [2] was 1.16 µM [rising, full curve].
As to `CN(CC(=O)Nc1cccc(F)c1)C(=O)CN1C(=O)NC2(CCCC2)C1=O`, the cell number change worked out at 15%. Under setting [2], the concentration at half-maximal activity (AC50) is 32.6 µM [rising, single point].
Take `COC(=O)C1=CN(c2ccc(OC)cc2)C=C(C(=O)OC)C1c1ccc(C)c([N+](=O)[O-])c1`: the cell number change was 17.8%. Moreover, under setting [2], the half-maximal activity concentration (AC50) was 23.1 µM [rising, single point].
Regarding `Clc1ccc2c(NCc3ccccc3)ccnc2c1`, the cell number change was determined as 4.17%.
Same read-out and setting: as for `O=C(NCC1CCCO1)/C(=C\c1ccccc1)NC(=O)c1ccccc1` (stereo unspecified), the figure is -2.97%.
As to `O=C(N/N=C/c1ccccc1F)c1ccc(COc2ccccc2Cl)o1`, the cell number change was -24.2%. In addition, under setting [1], the AC50 was 1.46 µM [rising, partial curve]. In addition, the half-maximal activity concentration (AC50) under setting [2] is 6.51 µM [rising, single point].
Regarding `Cc1[nH]c(=O)[nH]c(=O)c1S(=O)(=O)N(C)Cc1ccccc1`, the cell number change was 5.58%.
Same read-out and setting: under `CC1(C)NC(=O)N(CC(=O)N2CCN(S(=O)(=O)c3ccccc3C(F)(F)F)CC2)C1=O` stands 9.37%.
Regarding `O=C(CC12CC3CC(CC(C3)C1)C2)N/N=C/c1ccncc1`, the cell number change turned out to be 19%. The concentration at half-maximal activity (AC50) under setting [2] was 0.0651 µM [rising, full curve, poor fit].
Take `O=C(NC1CCCC1)c1cccc(Oc2ccccc2)c1`: the cell number change came out at 12%.
As to `CC1CCN(C(=O)c2ccc(CSc3nc4ccncc4n3Cc3ccc(F)cc3)cc2)CC1`, the cell number change was -0.104%. Also, the half-maximal activity concentration (AC50) under setting [2] was 14.6 µM [rising, partial curve].
Take `CCCCCCSc1ccc([C@@H]2[C@H]3C(=O)N(C)C(=O)[C@H]3[C@]3(C(=O)OC)CCCCN23)cc1OC`: the cell number change was -39.9%. In addition, the AC50 under setting [1] was 10.3 µM [falling, partial curve]. Besides, the AC50 under setting [2] is 6.51 µM [falling, partial curve].
On to `CC(C)c1nc(N2CCOCC2)c(C#N)c2c1CCC2`, for which the cell number change is -25.8%. The AC50 under setting [2] is 32.6 µM [falling, single point].
Regarding `CC1CC(C)(C)CC2(C1)NC(=O)N(CC(=O)Nc1ccc3[nH]c(=O)[nH]c3c1)C2=O` (stereo unspecified), the cell number change is -42.6%. The AC50 under setting [1] is 29.1 µM [falling, single point]. Besides, the half-maximal activity concentration (AC50) under setting [2] was 16.4 µM [falling, single point].
